These are yes or no findings as the source states them, for the method shown. For part of these data: Binding calls can cover weak binding; strength is not graded here. Sequences can lack the tags named with a protein.
Legend:
Experiment in all cases: two-hybrid; AFP2 and truncations as LexA DBD baits, SnRK1α1 as B42 AD prey; mated yeast scored on LacZ (X-gal) and LEU (leu-) reporters in parallel, 4 days
[1] = biological target: AFP2C truncation fused to the LexA DNA binding domain (Arabidopsis thaliana)
[2] = biological target: AFP2B truncation fused to the LexA DNA binding domain (Arabidopsis thaliana)
[3] = biological target: AFP2EAR truncation fused to the LexA DNA binding domain (Arabidopsis thaliana)

binding [1]: binds
binding [2]: binds
binding [3]: no binding
B1: SnRK1α1 fused to the B42 activation domain (enzyme, UniProt Q38997 1-512)
chain: MDGSGTGSRSGVESILPNYKLGRTLGIGSFGRVKIAEHALTGHKVAIKILNRRKIKNMEMEEKVRREIKILRLFMHPHIIRLYEVIETPTDIYLVMEYVNSGELFDYIVEKGRLQEDEARNFFQQIISGVEYCHRNMVVHRDLKPENLLLDSKCNVKIADFGLSNIMRDGHFLKTSCGSPNYAAPEVISGKLYAGPEVDVWSCGVILYALLCGTLPFDDENIPNLFKKIKGGIYTLPSHLSPGARDLIPRMLVVDPMKRVTIPEIRQHPWFQAHLPRYLAVPPPDTVQQAKKIDEEILQEVINMGFDRNHLIESLRNRTQNDGTVTYYLILDNRFRASSGYLGAEFQETMEGTPRMHPAESVASPVSHRLPGLMEYQGVGLRSQYPVERKWALGLQSRAHPREIMTEVLKALQDLNVCWKKIGHYNMKCRWVPNSSADGMLSNSMHDNNYFGDESSIIENEAAVKSPNVVKFEIQLYKTRDDKYLLDLQRVQGPQFLFLDLCAAFLAQLRVL

— PMC7550686
